From PubChem BioAssay AID1347076 (National Center for Advancing Translational Sciences (NCATS), 2019)
About 13,000 (3.2%) of roughly 400,000 compounds were called active. Inconclusive means that the source gave no clear call. Such entries were picked first, then a sample of the others. Calls follow the shape of the dose curve; as a rule, active = well fitted cell-killing curve with a large enough effect; inconclusive = small, poorly fitted or top-dose-only effect, or effect the other way; inactive = flat fitted curve, though single readings scatter. A potency beside an inconclusive call is a rough fit, not a confirmed value.

test: qHTS assay for MDR1-selective chemotherapeutics: Primary screen using the drug-selected MDR subline cells KB-V1; details: KB-V1 MDR cells viability, CellTiter-Glo, 72 h; activity change, negative = cytotoxicity: at 46.1 µM (top of the series); also: nearly all actives have a fitted effect of over 60% in size
Summary of the method: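 Luminescent ATP read-out (CellTiter-Glo, 10 min) measures survival of drug-selected KB-V1 MDR cells after 72 h, 37 degrees C compound exposure. Medium: phenol-red-free DMEM, 10% FBS. Values from fitted concentration-response curves.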
% is scaled to controls: 0 for no effect and ±100 for the full control effect; potency is read from the fitted curve at half-maximal effect.

Row | Compound | Potency | activity change, negative = cytotoxicity
1 | CC1(C)N=C(SCC(=O)Nc2ccccc2)C(c2ccc(Cl)cc2)=N1 | inconclusive: 16.4 µM [cytotoxic, single point] | –
2 | Cc1cccc2sc(NC(=O)CCn3cccc3)nc12 | inconclusive: 16.4 µM [cytotoxic, single point] | –
3 | O=C(CNC(=O)c1ccccc1F)OCc1cc(=O)n2ccsc2n1 | inactive | –
4 | CCCn1c(OC)nc2c1c(=O)n(C)c(=O)n2C | inactive | –
5 | CC12CCC(C(=O)CC1=O)C2(C)C (stereo not drawn) | inactive | –
6 | COc1cc(S(=O)(=O)NCCCN2CCOCC2)ccc1Cl | inactive | –
7 | COc1cccc(S(=O)(=O)Nc2ccc(C(=O)Nc3ccncc3)cc2)c1 | active: 20.6 µM | –
8 | c1ccc(-c2nc(C3CCCCC3)no2)cc1 | inactive | –
9 | CCN(CC)CCCCCCCCOC(=O)c1cc(OC)c(OC)c(OC)c1 | inconclusive: 3.26 µM [cytotoxic, partial curve] | –
10 | CCOC(=O)N1CCN(S(=O)(=O)N2CCCC(C(=O)NCCCN3CCC(C)CC3)C2)CC1 (stereo not drawn) | inconclusive: 6.51 µM [rising, partial curve] | –
11 | Nc1nc(Cl)nc2c1ncn2C1CC(O)C(CO)O1 (stereo not drawn) | inconclusive: 29.1 µM [cytotoxic, single point] | –
12 | CC1CCc2nn(CC(=O)NCCCN3CCCCC3)cc2C1 (stereo not drawn) | inconclusive: 29.1 µM [rising, single point] | –
13 | CCOc1ccc(CNS(=O)(=O)c2ccc3[nH]c(=O)ccc3c2)cc1 | inconclusive: 29.1 µM [rising, single point] | –
14 | CN1CCN(C2=Cc3cc(Cl)ccc3Sc3cc(F)ccc32)CC1 | active: 18.4 µM | –
15 | Cc1cnc(NS(=O)(=O)c2ccccc2)c(C)n1 | inconclusive: 29.1 µM [rising, single point] | –
16 | CCCc1cc(=O)[nH]c(/N=C(\N)Nc2ccccc2)n1 | inconclusive: 14.6 µM [cytotoxic, partial curve] | –
17 | COc1ccccc1NS(=O)(=O)c1cc(C(=O)N2CC(C)CC(C)C2)ccc1C (stereo not drawn) | active: 2.31 µM | –
18 | O=C(Nc1ccc(C(F)(F)F)cc1)c1cccnc1N1CCOCC1 | active: 16.4 µM | –
19 | COC(=O)c1ccc(/C=N/Nc2nc(C)c(C)s2)cc1 | inactive | –
20 | O=C(CSc1nncc2ccccc12)Nc1ccc(C(=O)O)cc1 | inconclusive: 29.1 µM [rising, single point] | –
21 | CC1CC(C)CN(C(=O)c2ccc3c(=O)n(Cc4ccc5c(c4)OCO5)c(=S)[nH]c3c2)C1 (stereo not drawn) | active: 14.6 µM | –
22 | Cc1nc(N2CCN(C(=O)c3cccs3)CC2)c2c3c(sc2n1)CCCC3 | inconclusive: 10.3 µM [cytotoxic, partial curve] | –
23 | CCOC(=O)Cn1c(=O)n(CC2CCCO2)c2nc(-c3cccc(C)c3)nc(C(N)=O)c21 (stereo not drawn) | inconclusive: 6.51 µM [cytotoxic, partial curve] | –
24 | CC1(C)CC(=O)C2=C(C1)OC(N)=C(C#N)C2C#Cc1ccccc1 (stereo not drawn) | inactive | –

Row | Compound | Potency | activity change, negative = cytotoxicity
25 | COC(=O)c1ccc(-n2c(CCC(=O)O)ccc2-c2ccc(C)cc2)cc1 | inactive | –
26 | O=C(N/N=C\c1ccc(COc2ccc([N+](=O)[O-])cc2)o1)c1cccc(Cl)c1 | inactive | –
27 | CN1CCN(NC(=S)NC2CCCC2)CC1 | inconclusive: 18.4 µM [rising, single point] | –
28 | CNS(=O)(=O)c1cn(CC(=O)Nc2cccc(OC)c2)cc1S(=O)(=O)NC | inconclusive: 29.1 µM [rising, partial curve, poor fit] | –
29 | COc1cc(Nc2ncc3c(n2)CCN(C(=O)Nc2ccc(C(C)C)cc2)C3)cc(OC)c1OC | inconclusive: 20.6 µM [cytotoxic, single point] | –
30 | C=CCn1c(=O)n(C(=O)OCC)c2cc(Br)ccc21 | inconclusive: 29.1 µM [cytotoxic, single point] | –
31 | Cc1cc2nc3ccc(N(C)C)cc3nc2cc1N | inactive | –
32 | N#CCC(=O)Nc1ccc(C(=O)OCC(=O)Nc2ccc3ccccc3c2)cc1 | inconclusive: 32.6 µM [rising, partial curve, poor fit] | –
33 | CCOC(=O)C1(Cc2ccccc2C)CCCN(S(=O)(=O)c2cccnc2)C1 (stereo not drawn) | inconclusive: 7.31 µM [cytotoxic, partial curve] | –
34 | O=C(Nc1ccc2oc(-c3ccccc3F)nc2c1)c1ccc([N+](=O)[O-])o1 | inactive | –
35 | COc1ccccc1OC(C)C(=O)Nc1c(C(=O)c2ccc(Cl)cc2)oc2ccccc12 (stereo not drawn) | inconclusive: 20.6 µM [rising, single point] | –
36 | Cc1ccc(C)c(N2CCN(Cc3nnc(-c4ccc5c(c4)OCO5)o3)CC2)c1 | inactive | –
37 | Cc1cc(Nc2ccc(C(C)C)cc2)n2ncnc2n1 | active: 7.31 µM | –
38 | Cc1cccc(NC(=O)COC(=O)CCc2ccccc2)c1C | inconclusive: 20.6 µM [rising, single point] | –
39 | O=C(Cn1cnc2c(NCc3ccccc3)ncnc21)NCc1ccc2[nH]ccc2c1 | inactive | –
40 | NC(=O)c1nsc(C(=O)N(Cc2cccnc2)C(C(=O)NCc2ccc(F)cc2)c2ccc(F)cc2)c1N (stereo not drawn) | inactive | –
41 | O=C(Nc1ccc(OCC(F)(F)C(F)F)cc1)c1ccncc1 | inconclusive: 18.4 µM [cytotoxic, single point] | –
42 | CC(C)C(=O)Nc1cccc(NC(=S)NC(=O)c2ccc([N+](=O)[O-])cc2)c1 | inconclusive: 32.6 µM [cytotoxic, single point] | –
43 | Cc1ccc(S(=O)(=O)N(CC(=O)N2CCCCC2)c2cccc(C)c2)cc1 | inconclusive: 9.2 µM [cytotoxic, partial curve] | –
44 | COc1ccccc1CNc1cc(-c2ccccc2)ccc1OC | inconclusive: 13 µM [cytotoxic, partial curve] | –
45 | Cn1nc(-c2ccc3c(c2)OCCO3)c2ccccc2c1=O | – | inconclusive: -42.7%
46 | CC(C)c1nc2scc(-c3ccc(Cl)cc3)c2c(=O)n1N | inconclusive: 29.1 µM [cytotoxic, single point] | –
47 | Cc1nc(Cc2nnc(SCC(=O)Nc3c(C)cccc3C)o2)cs1 | inconclusive: 0.461 µM [rising, partial curve] | –
48 | CCN(Cc1ccccc1)C(=O)Cn1cc(S(=O)(=O)Cc2cccc(Cl)c2)c2ccccc21 | inconclusive: 4.11 µM [cytotoxic, full curve] | –

Gathered by group, those above containing an aryl thioether with sulfur outside any ring.
Row | Compound | Potency | activity change, negative = cytotoxicity
20 | O=C(CSc1nncc2ccccc12)Nc1ccc(C(=O)O)cc1 | inconclusive: 29.1 µM [rising, single point] | –
47 | Cc1nc(Cc2nnc(SCC(=O)Nc3c(C)cccc3C)o2)cs1 | inconclusive: 0.461 µM [rising, partial curve] | –
